# Results from one PubChem assay

Data taken from PubChem BioAssay AID504749, deposited by NCATS (2011).

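A panel of P. falciparum strains inside erythrocytes is exposed to compounds for three days, then a DNA-binding dye reports the amount of parasite DNA. Each compound was titrated across a series from about 0.000037 to 29 µM. The number is the fitted AC50, the concentration giving a half-maximal change in signal; a lower value means higher potency, whether the curve shows a decrease or an increase. Calls follow the curve class and fit quality: every row here is inconclusive, covering signal-raising curves and weak, poorly fitted, partial or highest-dose-only inhibition curves.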

Values are in nM. All entries here are filed as inconclusive. Only part of the assay is shown, chiefly results filed as inconclusive. Potencies fitted to partial, single-point or poorly fitting curves are rough.

O=C(CCCN1CCC(O)(c2ccc(Br)cc2)CC1)c1ccc(F)cc1 [CP250] gave Potency 7080 nM (inhibitor, single point).
O=C(CCCN1CCC(O)(c2ccc(Br)cc2)CC1)c1ccc(F)cc1 [CP291] gave Potency 7208 nM (inhibitor, single point).
O=C(CCCN1CCC(O)(c2ccc(Br)cc2)CC1)c1ccc(F)cc1 [AA1029] gave Potency 3548 nM (inhibitor, single point).
O=C(CCCN1CCC(O)(c2ccc(Br)cc2)CC1)c1ccc(F)cc1 [PC26] gave Potency 6424 nM (inhibitor, partial curve).
O=C(CCCN1CCC(O)(c2ccc(Br)cc2)CC1)c1ccc(F)cc1 [TAB113] gave Potency 10000 nM (inhibitor, single point).
O=C(CCCN1CCC(O)(c2ccc(Br)cc2)CC1)c1ccc(F)cc1 [CP203] gave Potency 8087 nM (inhibitor, single point).
O=C(CCCN1CCC(O)(c2ccc(Br)cc2)CC1)c1ccc(F)cc1 [CP252] gave Potency 10000 nM (inhibitor, single point).
O=C(CCCN1CCC(O)(c2ccc(Br)cc2)CC1)c1ccc(F)cc1 [TAB165] gave Potency 7080 nM (inhibitor, single point).
O=C(CCCN1CCC(O)(c2ccc(Br)cc2)CC1)c1ccc(F)cc1 [CP265] gave Potency 6310 nM (inhibitor, single point).
O=C(CCCN1CCC(O)(c2ccc(Br)cc2)CC1)c1ccc(F)cc1 [DIV30] gave Potency 8087 nM (inhibitor, single point).
O=C(CCCN1CCC(O)(c2ccc(Br)cc2)CC1)c1ccc(F)cc1 [CP269] gave Potency 6424 nM (inhibitor, single point).
O=C(CCCN1CCC(O)(c2ccc(Br)cc2)CC1)c1ccc(F)cc1 [CP315] gave Potency 8087 nM (inhibitor, partial curve, poor fit).
O=C(CCCN1CCC(O)(c2ccc(Br)cc2)CC1)c1ccc(F)cc1 [PAD] gave Potency 3548 nM (inhibitor, single point).
O=C(CCCN1CCC(O)(c2ccc(Br)cc2)CC1)c1ccc(F)cc1 [CP325] gave Potency 9074 nM (inhibitor, partial curve, poor fit).
O=C(CCCN1CCC(O)(c2ccc(Br)cc2)CC1)c1ccc(F)cc1 [CP238] gave Potency 4467 nM (inhibitor, single point).
O=C(CCCN1CCC(O)(c2ccc(Br)cc2)CC1)c1ccc(F)cc1 [CP192] gave Potency 7208 nM (inhibitor, single point).

For reference, 2 entries once more:

SMILES	condition	Potency (nM)	remark
O=C(CCCN1CCC(O)(c2ccc(Br)cc2)CC1)c1ccc(F)cc1	CP238	4467	inhibitor, single point
O=C(CCCN1CCC(O)(c2ccc(Br)cc2)CC1)c1ccc(F)cc1	CP265	6310	inhibitor, single point